Source: patent publication US20150111852A1, “1-Di(sec-butyl)-phosphinoyl-pentane (dapa-2-5) as a topical agent” (priority 2013, published 2015)

Tested on: mouth and throat
Assay: Sensory activity of ODT-C on volunteers (double-blind, modified ASHRAE scale)
Type: in vivo, human
Details: ODT on the tongue
Experimental: ODT-C. More experiments were conducted to find a smaller tablet, in the range of 40 to 60 mg, with a disintegration of <10 sec. These paraemters might achieve a better pharmacological effect. ODT-B was 100 mg in size and disintegrated in <20 sec. […] For example, to 1.5 g of DAPA-2-5 is added 1.5 g of absolute ethanol, followed by 2.0 g of Neusilin US2. The mixture is shaken or mixed in a Speedmixer at 500 rpm for 1 min. The sample is placed under a heat source and about 2 hr later, the sample size is re-weighed with the expectation that the ethanol has been evaporated and the sample now weights 3.5 g. This powder is free-flowing. • b. a sample of maltitol powder is prepared (Maltisorb® P200 from Roquette). • c. a sample of Prosolv® EasyTab is prepared (JRS Pharma, Rosenburg, Germany). • d. a blend of a. [2.80 g], b. [15.73 g] and c. [31.46 g] is prepared to make 1000 ODT tablets, each weighing 50 mg and containing 1.2 mg of DAPA-2-5. • e. the blend is first shaken by hand, then placed for 2 min in a SpeedMixer at 500 rpm. The blend is poured into the funnel of a New Single Punch Tablet Press Pill Making Machine Maker TDP-1-5 [available from Amazon.com] and the extruded tablets are collected.
ODT-C, described in Study 2, were tested for sensory properties on 4 volunteers, with at least 3 trials per compound and at 1.2 to 1.5 mg per ODT. The ODT was placed on the mid-line posterior dorsal surface of the tongue and sensory effects recorded for 30 min on a standardized form […]. The ODT were coded and administered on a double-blind basis. A modified ASHRAE scale of neutral, slightly cool [-1], cool [-2], cold [-3], and icy cold [-4] was used to rank the peak heat abstraction sensations in the mouth and throat. Other perceived effects, e.g. taste and duration, were also noted.

SMILES | taste
CCCCCCP(=O)(C(C)CC)C(C)CC (stereo not shown) [DAPA-2-6, 1-Di(sec-butyl) phosphinoyl-hexane] | unpleasant taste
CCCCCCCCP(=O)(C(C)CC)C(C)CC (stereo not shown) [DAPA-2-8, 1-Di(sec-butyl) phosphinoyl-octane] | unpleasant tastes were especially prominent
CCCCCCCCP(=O)(C(C)C)C(C)C [DAPA-1-8, 1-Di(isopropyl)-phosphinoyl-octane] | unpleasant taste
CCCCCCCP(=O)(C(C)CC)C(C)CC (stereo not shown) [DAPA-2-7, 1-Di(sec-butyl) phosphinoyl-heptane] | unpleasant taste
CCCCCCP(=O)(C(C)C)C(C)C [DAPA-1-6, 1-Di(isopropyl)-phosphinoyl-hexane] | unpleasant taste
CCCCCP(=O)(C(C)CC)C(C)CC (stereo not shown) [DAPA-2-5, 1-Di(sec-butyl)-phosphinoyl-pentane] | slight organic sweetish taste
CCCCCCCP(=O)(C(C)C)C(C)C [DAPA-1-7, 1-Di(isopropyl)-phosphinoyl-heptane] | unpleasant taste
